From patent US20080064048A1, “Methods for Selecting Proteins that are Readily Presented as Antigens on Dendritic Cells” (Medical and Biological Laboratories, Co., Ltd., priority 2004, published 2008) come the findings set out here.

The data set concerns DC2.4 cells. As to the kind of experiment: Pulse-chase degradation of cell-bound bOVA (SA beads, SDS-PAGE, Western blot). The class given is cell-based, mouse. The procedure: Triton X-100 was used to lyse membranes. […] DC2.4 cells were pulsed with bOVA and chased. bOVA was recovered using SA beads, then separated by SDS-PAGE followed by Western blotting using SA-HRP Ctl: a control not containing inhibitors. […] Asterisks in the left panel indicate non-specific binding with SA-HRP.
Next, DC2.4 cells were incubated with bOVA for one hour, and this was then chased for up to four hours. Cell-bound bOVA was recovered from total cell lysates by streptavidin-agarose and separated by SDS-PAGE.
Depletion of Ca^2+ in the ER is known to inhibit ERAD. Thapsigargin (Tg) is known to decrease the Ca^2+ concentration in the ER lumen by binding to the ER membrane and functioning as an ionophore and to inhibit ERA D. Thus, in the presence of Tg, bOVA degradation by ERAD is predicted to be suppressed. DC2.4 cells were pulsed with bOVA in the presence of MG-132, then washed with PBS or with PBS containing 1 mM EGTA, and then chased for four hours.

B1: bOVA: biotin-labeled OVA antigen (protein)
chain: GSIGAASMEFCFDVFKELKVHHANENIFYCPIAIMSALAMVYLGAKDSTRTQINKVVRFDKLPGFGDSIEAQCGTSVNVHSSLRDILNQITKPNDVYSFSLASRLYAEERYPILPEYLQCVKELYRGGLEPINFQTAADQARELINSWVESQTNGIIRNVLQPSSVDSQTAMVLVNAIVFKGLWEKAFKDEDTQAMPFRVTEQESKPVQMMYQIGLFRVASMASEKMKILELPFASGTMSMLVLLPDEVSGLEQLESIINFEKLTEWTSSNVMEERKIKVYLPRMKMEEKYNLTSVLMAMGITDVFSSSANLSGISSAESLKISQAVHAAHAEINEAGREVVGSAEAGVDAASVSEEFRADHPFLFCIKHIATNAVLFFGRCVSP
Consider B1, for which, under “DC2.4, washed with PBS containing 1 mM EGTA, chase 4 h”, the “accumulated bOVA during chase with Ca2+ depletion” value is recorded as “did not decrease”. The “bOVA degradation with TAP1 knock-down” value (DC2.4 TAP1 knock-down) is “did not affect”. In addition, for the setting “DC2.4 V41 and V41-1”, the “bOVA retained during chase in VCP-knocked-down cells vs parental” value is on record as “retained larger amounts”. Where the note is “DC2.4 pre-exposed to EGTA, Ca2+ 1 mM re-added”, the “bOVA degradation after re-addition of Ca2+” value is “restored”.

B2: Chicken ovalbumin (protein)
chain: B1 chain
notes: Chicken ovalbumin used as an antigen model
As for B2, the “decrease in accumulated OVA in CHIP-knocked-down cells” value (DC2.4 C4 and C4F-1) is “slowed down”. Also, the “decrease of accumulated OVA in Sec61α-knocked-down cells vs parental” value (DC2.4 S22 and S22-3) was “decreased more slowly”.
